# Data published in patent US20250041282A1, “METHOD FOR TREATING INFLAMMATORY PULMONARY DISEASE” (FU JEN CATHOLIC UNIVERSITY, priority 2021, published 2025).
# At least one structure is not confirmed: it was looked up by name or label, or the drawing left a doubt.
# Experiments:
# RAW264.7 macrophages [1] = test: ELISA of cytokines in cell culture media; format: cell-based, mouse; details: pretreated 30 min, 100 ng/ml LPS 24 h; FIG. 5A/5B
# Description: RANTES (RayBiotech), IL-1β and IL-6 (eBioscience, San Diego, CA, USA) concentrations in cell culture media and mouse serum were measured using ELISA kits according to the manufacturer's instructions. The plates were measured at […] using an Epoch microplate spectrophotometer (BioTek Instruments, Winooski, VT, USA). The concentrations of RANTES, IL-1β and IL-6 in the samples were determined by standard curves.
# For identifying the potential signaling pathways which regulate the secretion of IL-6 and RANTES induced by LPS stimulation, RAW264.7 macrophages were pretreated with various kinase inhibitors for 30 min and then stimulated with/without 100 ng/ml LPS for 24 h; the cell culture media was harvested for ELISA assay. […] (FIG. 6A). To investigate whether FJU-C28 could mediate the transcriptional activity of NF-κB (p65), the translocation of NF-κB p65 was examined in LPS-stimulated macrophages.
# RAW264.7 macrophages [2] = test: Western blotting of LPS-stimulated macrophage lysates; format: cell-based, mouse
# From the text: In brief, cell lysate was separated by 10% SDS-PAGE and transferred to a PVDF membrane (Hybond™-P, Amersham, Piscataway, NJ, USA). The blots were probed with anti-p38 (Catalogue Number: 8690P), anti-p-p38 (Thr180/Tyr182; Catalogue Number: 4511P), anti-ERK44/42 (Catalogue Number: 4695P), anti-p-ERK44/42 (Thr202/Tyr204; Catalogue Number: 4370P), anti-JNK (Catalogue Number: 9258P), anti-p-JNK (Thr183/Tyr185; Catalogue Number: 4668P), anti-p65 (Catalogue Number: 8242S), anti-STAT3 (Catalogue Number: 12640S), anti-p-STAT3 (Tyr705; Catalogue Number: 9145S) and anti-RANTES (Catalogue Number: 2989S) antibodies were provided by Cell Signaling Technology, Inc. (Danvers, MA, USA). Anti-Lamin A/C (Catalogue Number: 101127) antibodies were obtained from GeneTex, Inc. (San Antonio, TX, USA). […] Bound antibodies were visualized by […] staining (Western Lighting Plus ECL; PerkinElmer, Wellesley, MA, USA) with autoradiography using FUJI Medical X-ray film (Fuji Corporation, Kofu, Yamanashi, Japan) or a MultiGel-21 multifunctional imaging system (TOPBIO, New Taipei, Taiwan). The intensity of the western blot bands was quantified by ImageJ software. The quantitative immunoblot data were normalized to the internal control protein and are expressed as the relative ratio of the treatment group to the control. […]
SMILES,"LPS-induced expression of IL-6 (ELISA), kinase inhibitors (RAW264.7 macrophages [1])","phosphorylation of STAT3 induced by IL-6 stimulation (RAW264.7 macrophages [2]; IL-6 stimulation, FIG. 7)","LPS-induced phosphorylation of STAT3 (RAW264.7 macrophages [2]; LPS-induced RAW264.7, FIG. 6D)","LPS-induced expression of RANTES (ELISA), kinase inhibitors (RAW264.7 macrophages [1])"
COC[C@H]1OC(=O)c2coc3c2[C@@]1(C)C1=C(C3=O)[C@@H]2CCC(=O)[C@@]2(C)C[C@H]1OC(C)=O [Wortmannin],not,–,–,–
CO[C@H]1C[C@@H]2CC[C@@H](C)[C@@](O)(O2)C(=O)C(=O)N2CCCC[C@H]2C(=O)O[C@H]([C@H](C)C[C@@H]2CC[C@@H](O)[C@H](OC)C2)CC(=O)[C@H](C)/C=C(\C)[C@@H](O)[C@@H](OC)C(=O)[C@H](C)C[C@H](C)/C=C/C=C/C=C/1C [Rapamycin],not,–,–,–
"Oc1c2ccccc2c2c3c(cccc13)N=N2 [SP600125, reference compound]",suppressed,inhibitory effect,inhibited,suppressed
